# Results taken from article PMC13458699.
# Sequences of proteins named here, by UniProt entry; tags and fusion partners are left off.
# UniProt Q5MIZ7: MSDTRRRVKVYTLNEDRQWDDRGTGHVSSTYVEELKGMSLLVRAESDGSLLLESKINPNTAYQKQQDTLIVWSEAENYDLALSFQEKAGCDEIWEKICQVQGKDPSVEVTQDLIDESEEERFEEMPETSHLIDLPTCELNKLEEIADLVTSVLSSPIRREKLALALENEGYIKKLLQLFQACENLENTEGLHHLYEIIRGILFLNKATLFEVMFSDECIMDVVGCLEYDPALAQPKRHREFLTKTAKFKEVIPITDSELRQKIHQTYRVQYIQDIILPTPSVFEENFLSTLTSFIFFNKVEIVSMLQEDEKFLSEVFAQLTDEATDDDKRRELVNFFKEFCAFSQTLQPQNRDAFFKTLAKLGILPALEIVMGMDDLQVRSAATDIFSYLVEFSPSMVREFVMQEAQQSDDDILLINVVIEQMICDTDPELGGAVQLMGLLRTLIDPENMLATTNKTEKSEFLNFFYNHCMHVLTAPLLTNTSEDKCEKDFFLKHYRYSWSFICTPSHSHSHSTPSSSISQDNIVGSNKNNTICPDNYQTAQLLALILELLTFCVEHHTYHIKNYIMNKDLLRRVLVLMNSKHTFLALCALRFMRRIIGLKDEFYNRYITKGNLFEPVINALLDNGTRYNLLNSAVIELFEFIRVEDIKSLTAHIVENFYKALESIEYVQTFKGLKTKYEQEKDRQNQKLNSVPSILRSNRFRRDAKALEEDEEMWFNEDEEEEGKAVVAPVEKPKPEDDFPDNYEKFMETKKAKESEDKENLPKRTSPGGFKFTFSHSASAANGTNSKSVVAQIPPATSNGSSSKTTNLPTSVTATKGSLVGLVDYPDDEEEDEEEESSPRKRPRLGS
# Target: T1, CCDC6 (endogenous, RPE1 cells) (human (endogenous in RPE1)) (UniProt Q16204)
# T1 sequence: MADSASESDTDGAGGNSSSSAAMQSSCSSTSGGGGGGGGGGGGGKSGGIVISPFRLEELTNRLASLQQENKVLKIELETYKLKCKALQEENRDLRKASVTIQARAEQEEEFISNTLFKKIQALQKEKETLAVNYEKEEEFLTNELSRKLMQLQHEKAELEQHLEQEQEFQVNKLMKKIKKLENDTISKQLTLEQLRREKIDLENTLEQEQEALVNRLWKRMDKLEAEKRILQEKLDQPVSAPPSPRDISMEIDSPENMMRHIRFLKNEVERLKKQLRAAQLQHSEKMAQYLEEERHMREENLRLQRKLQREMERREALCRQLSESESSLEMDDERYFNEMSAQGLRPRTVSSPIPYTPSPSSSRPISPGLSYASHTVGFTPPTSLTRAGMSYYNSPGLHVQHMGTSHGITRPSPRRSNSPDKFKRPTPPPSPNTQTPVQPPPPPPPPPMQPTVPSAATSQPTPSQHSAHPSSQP
# Assay: affinity purification with mass spectrometry; IP with an anti-CCDC6 antibody from RPE1 lysates, proteins at endogenous levels; WT compared with CCDC6-/-, FBXO42-/- and PPP4C knock-down (shRNA) cells
substance,measurement,value
"PPP4R3B (endogenous, RPE1 cells) (from UniProt Q5MIZ7 1-849)",binding,no binding

# These are yes or no findings as the source states them, for the method shown. Binding seen in cells or lysates may run through a third protein. These calls come from enrichment with a bait or labelling near it, and not all partners need be listed. A no says only that the protein was not detected with the bait.
